Results reported in the supplement of paper PMC5949888.
Most values lie at the floor of the assay. Slopes are relative: functional sequences can read slightly below zero.

system: Saccharomyces cerevisiae PS128 hsf1 delta, HSF1(1-493) fusion; experiment: growth estimate (transactivation domain function in HSF1 fusion, heat-shock survival) (a.u. (slope of normalised read count over time)); higher = stronger growth at 37°C, i.e. more transactivation activity; conditions: library: random library

| Substance | growth estimate |
| --- | --- |
| SPTRAGLAAHPSH | < -0.25 |
| SPVCFGSNEWKHKFSVTPAG | < -0.25 |
| SPVFRSEPHVFQGWACSWPR | < -0.25 |
| SPVHCFTS | < -0.25 |
| SPVHFRRK | < -0.25 |
| SPVTTPRHEVSSCDRRARCK | < -0.25 |
| SPVVSEGPYLVHTSLD | < -0.25 |
| SPWAYYHLLSACHAWSIPHG | < -0.25 |
| SPWVCPRPADHHTSYGSTGV | < -0.25 |
| SPWWAD | < -0.25 |
| SPYAFRTRCVVKRSRCRRAE | < -0.25 |
| SPYGCLSERRSADLSIYNGW | < -0.25 |
| SQAQENREQVLC | < -0.25 |
| SQASLLRRLK | < -0.25 |
| SQCRNSPGRSLLGKRQVIMR | < -0.25 |
| SQCSYDWGVLVVSNRIARQV | < -0.25 |
| SQCVSLATRGYECHNFQRRT | < -0.25 |
| SQDSLLSVQSVQSVGVLCRI | < -0.25 |
| SQDTIHALLRSLECQGSHVN | < -0.25 |
| SQGGHGTGFTAAK | < -0.25 |
| SQHAVMSGVPFRRLETSYKA | < -0.25 |
| SQHVSFDPDVSDIHESPGTH | < -0.25 |
| SQIEMQTFDDNSNTHCPCTP | < -0.25 |
| SQIRRLGLINYCMNFSRHLL | < -0.25 |
| SQKGSSHHESIFSSEVQAVG | < -0.25 |

| Substance | growth estimate |
| --- | --- |
| SQKLGSADTL | < -0.25 |
| SQLFIRCSERLL | < -0.25 |
| SQLGR | < -0.25 |
| SQLGSACSVPNRFDDSVLPP | < -0.25 |
| SQLNLVVPRHVDRASGPGSK | < -0.25 |
| SQMVLDQVLRQGDPLQDSLC | < -0.25 |
| SQRDRHINPHTRKLDSLR | < -0.25 |
| SQRFWIDASGSVTVFYVGTT | < -0.25 |
| SQRHTPTYWNRRSRRHAPFP | < -0.25 |
| SQRLLLRS | < -0.25 |
| SQRPPWNTVRMCRLSHAFNY | < -0.25 |
| SQRRISRSPSGTGLREERGP | < -0.25 |
| SQSEP | < -0.25 |
| SQTLTGVTPGL | < -0.25 |
| SQTSHCGCAATPR | < -0.25 |
| SQVEMLLGGEGLMFGPPAKP | < -0.25 |
| SQVGMEGYMCNSSHLERYPN | < -0.25 |
| SQVWCAG | -0.245 |
| SQWVFCPMAVDRNNVKVCRG | < -0.25 |
| SQYTGGGSIPPTSTIAF | < -0.25 |
| SRADSFRLVRDRRT | < -0.25 |
| SRAGPTRARGPISHLPEQHA | < -0.25 |
| SRAGSTDI | < -0.25 |
| SRAKTSKWGLG | -0.245 |
| SRAMISQRSTDRLLIS | < -0.25 |

| Substance | growth estimate |
| --- | --- |
| SRANLGRNLKCYSTRYTNWA | < -0.25 |
| SRATEQRHLMHAKPIASMRS | < -0.25 |
| SRAVGGSSCRVNKAL | < -0.25 |
| SRCQRRGTDEDNELLGQVSG | < -0.25 |
| SRCREGA | < -0.25 |
| SRCRYAGRLTDECVYIRMRR | < -0.25 |
| SRCVARARDES | < -0.25 |
| SRCYLYGRRRSQRRPAITRA | < -0.25 |
| SRDL | < -0.25 |
| SRDRRWVRTNSLHPGLVAYA | < -0.25 |
| SRDSGRGGRHHGL | < -0.25 |
| SRDTHRACSRTTKDVAWIPP | < -0.25 |
| SRDTVENSLALHR | < -0.25 |
| SRDVLLPSPDFYSCLIRSRG | < -0.25 |
| SREI | < -0.25 |
| SREIAPARWLLCKGVGRDPR | < -0.25 |
| SRFCTVRCRVSCKYKHWLSI | < -0.25 |
| SRFGAVKLARGVNTFISVSP | < -0.25 |
| SRFGVKNLPLLRHRS | < -0.25 |
| SRFLG | < -0.25 |
| SRFYRS | < -0.25 |
| SRGDGCARTPERSIGFRGGG | < -0.25 |
| SRGDILYRTSRTSRHPRSYP | < -0.25 |
| SRGGF | < -0.25 |
| SRGRVVRIAGMQKRV | -0.245 |

Fetched one by one from the entries so far:

| Substance | growth estimate |
| --- | --- |
| SRCQRRGTDEDNELLGQVSG | < -0.25 |
| SRFGAVKLARGVNTFISVSP | < -0.25 |

Next part.

| Substance | growth estimate |
| --- | --- |
| SRGSVGV | < -0.25 |
| SRGVEADLLLEYSASRI | < -0.25 |
| SRGVHVKAELPDSVQRDWEV | < -0.25 |
| SRIGMTFRLNSQGG | < -0.25 |
| SRIHQSDC | < -0.25 |
| SRIIIFRIYVVEGQVLVVSS | < -0.25 |
| SRIR | < -0.25 |
| SRISSKVVFGLFDGLCKYLS | < -0.25 |
| SRISWRVSRLSGFPDSMSFM | < -0.25 |
| SRKGRATVNKLGS | < -0.25 |
| SRKSSSLGSSFGFKIPEDEC | < -0.25 |
| SRLLLSAGNLGNRSSIQPLE | < -0.25 |
| SRLNNMQIHRHAGAT | -0.139 |
| SRLPVCARCRSLTQDRPDER | < -0.25 |
| SRLQGAYSCAYYDIRPSGCA | < -0.25 |
| SRLWHSCKPRR | < -0.25 |
| SRMLAWQTDILPNKCCTRFC | < -0.25 |
| SRNPLLAVRRIGKWRTCCDP | < -0.25 |
| SRNV | < -0.25 |
| SRPDLRDPSGRRGIRPALKG | < -0.25 |
| SRPILKRVRNFSLVGNRSRE | < -0.25 |
| SRPVESKACLSKNIRLNGRT | < -0.25 |
| SRPVIYASSRQNLRGICLYG | < -0.25 |
